Taken from: PubChem BioAssay AID1508588 (Peter MacCallum Cancer Centre, 2020)
Aim: 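Knock-downs boosting vemurafenib effects on melanoma cell growth or lactate release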 (primary screen). System: human WM266.4 melanoma cells (BRAF V600 mutant). Knock-down reagent: siRNA pool against human genes, 40 nM. Timing: 96 h from transfection to read-out. Treatment: vemurafenib 300 nM (about IC25), added 48 h after transfection, for 48 h; comparison arm got DMSO vehicle only. Measured: 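Ratios to non-targeting siRNA for cell gain, counted as DAPI nuclei after minus before drug and averaged over two replicates, and for absorbance-read medium lactate per cell; both binned into fold-change classes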. Direction: cell gain with vemurafenib: higher = more cell gain than with non-targeting siRNA; lactate per cell with vemurafenib: higher = more lactate made per cell. Active means: 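a knock-down counts as enhancing when its fold-change classes with vehicle and with vemurafenib, taken together, show a stronger drug effect on cell gain or lactate per cell; exact class pairs not stated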. Meaning of the calls: active = enhances vemurafenib effect; inactive = no enhancement seen.
This is one part, drawn at random, of about 18,000 deposited reagents. 790 of all reagents (4.4%) were called active. 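Calls rest on a combination of fold-change classes in drug and vehicle arms, not all shown here.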 Reagent sequences are not shown.

Knock-down of RTL6 came out at: cell gain with vemurafenib 0.29; lactate per cell with vemurafenib 1.98; inactive.
With knock-down of SRC, the screen gave cell gain with vemurafenib 0.19; lactate per cell with vemurafenib 0.56; inactive.
With knock-down of FHL3, the record shows cell gain with vemurafenib 0.46; lactate per cell with vemurafenib 0.56; inactive.
After knock-down of H2BC5 the results were cell gain with vemurafenib 0.54; lactate per cell with vemurafenib 1.02; inactive.
FOXD4L1 showed cell gain with vemurafenib 1.05; lactate per cell with vemurafenib 0.52; inactive.
MUC17 showed cell gain with vemurafenib 0.49; lactate per cell with vemurafenib 0.97; inactive.
Depletion of MIR99AHG gave: cell gain with vemurafenib 0.36; lactate per cell with vemurafenib 0.36; inactive.
With knock-down of SYVN1 the results were cell gain with vemurafenib 1.03; lactate per cell with vemurafenib 0.96; inactive.
TMCO1 scored cell gain with vemurafenib 0.79; lactate per cell with vemurafenib 0.66; inactive.
After knock-down of H4C1, the screen gave cell gain with vemurafenib 1.44; lactate per cell with vemurafenib 1; inactive.
RICTOR gave cell gain with vemurafenib 0.33; lactate per cell with vemurafenib 0.78; inactive.
KLF10 gave cell gain with vemurafenib 1.08; lactate per cell with vemurafenib 0.84; inactive.
Depletion of NLRP11 resulted in: cell gain with vemurafenib 0.42; lactate per cell with vemurafenib 0.66; inactive.
Silencing of SSTR2 came out at: cell gain with vemurafenib 0.72; lactate per cell with vemurafenib 0.68; inactive.
Knock-down of LRRC8C gave: cell gain with vemurafenib 0.34; lactate per cell with vemurafenib 1.82; inactive.
JSRP1 showed cell gain with vemurafenib 0.22; lactate per cell with vemurafenib 1.04; inactive.
